# Measurements as given in paper PMC8763653.
# By UniProt entry, the sequences of proteins in these tests, tags left out. Where a name states a change or a piece, a line headed by the entry shows the natural chain unless it says otherwise. Chains listed by the source or under a name are the forms on record and can include a tag or linker. Residues count along the entry.
# 6×Myc‐tagged human CHI3L1 (chitinase 3 like1), full length (P36222, residues 22-383): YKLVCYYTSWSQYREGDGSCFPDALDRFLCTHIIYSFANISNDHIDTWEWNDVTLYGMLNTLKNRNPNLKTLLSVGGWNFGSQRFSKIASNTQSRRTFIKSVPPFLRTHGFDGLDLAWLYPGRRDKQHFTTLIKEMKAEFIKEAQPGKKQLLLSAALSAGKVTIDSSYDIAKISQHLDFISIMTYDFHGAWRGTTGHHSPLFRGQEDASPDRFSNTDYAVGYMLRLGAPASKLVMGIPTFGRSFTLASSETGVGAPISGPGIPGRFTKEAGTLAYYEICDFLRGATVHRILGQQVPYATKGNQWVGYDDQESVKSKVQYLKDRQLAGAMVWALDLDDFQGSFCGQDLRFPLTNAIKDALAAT
# 6×Myc‐tagged human CHI3L1 Δ278‐294 (P36222, form named): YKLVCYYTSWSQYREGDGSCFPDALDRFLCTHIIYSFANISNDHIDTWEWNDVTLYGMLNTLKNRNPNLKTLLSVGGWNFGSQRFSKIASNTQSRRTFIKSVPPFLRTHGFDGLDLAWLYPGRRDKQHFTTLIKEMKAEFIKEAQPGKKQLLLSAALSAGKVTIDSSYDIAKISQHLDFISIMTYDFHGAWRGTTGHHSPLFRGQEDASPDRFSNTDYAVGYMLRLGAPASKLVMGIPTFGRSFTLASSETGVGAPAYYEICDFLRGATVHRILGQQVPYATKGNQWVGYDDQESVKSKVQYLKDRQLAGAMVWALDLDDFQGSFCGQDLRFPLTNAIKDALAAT
# Results are given in words; binding and its absence hold for the method and conditions named. In cells and extracts the contact can be indirect. Some entries that bind do so weakly or less than the wild type.
# B1: interleukin‐13 receptor subunit alpha‐2 (IL‐13Rα2), Q14627 27-380 (receptor)
# chain: DTEIKVNPPQDFEIVDPGYLGYLYLQWQPPLSLDHFKECTVEYELKYRNIGSETWKTIITKNLHYKDGFDLNKGIEAKIHTLLPWQCTNGSEVQSSWAETTYWISPQGIPETKVQDMDCVYYNWQYLLCSWKPGIGVLLDTNYNLFYWYEGLDHALQCVDYIKADGQNIGCRFPYLEASDYKDFYICVNGSSENKPIRSSYFTFQLQNIVKPLPPVYLTFTRESSCEIKLKWSIPLGPIPARCFDYEIEIREDDTTLVTATVENETYTLKTTNETRQLCFVVRSKVNIYCSDDGIWSEWSDKQCWEGEDLSKKTLLRFWLPFGFILILVIFVTGLLLRKPNTYPKMIPEFFCDT
# B2: IL‐13Rα1 (receptor, UniProt P78552 22-427)
# chain: GGGGAAPTETQPPVTNLSVSVENLCTVIWTWNPPEGASSNCSLWYFSHFGDKQDKKIAPETRRSIEVPLNERICLQVGSQCSTNESEKPSILVEKCISPPEGDPESAVTELQCIWHNLSYMKCSWLPGRNTSPDTNYTLYYWHRSLEKIHQCENIFREGQYFGCSFDLTKVKDSSFEQHSVQIMVKDNAGKIKPSFNIVPLTSRVKPDPPHIKNLSFHNDDLYVQWENPQNFISRCLFYEVEVNNSQTETHNVFYVQEAKCENPEFERNVENTSCFMVPGVLPDTLNTVRIRVKTNKLCYEDDKLWSNWSQEMSIGKKRNSTLYITMLLIVPVIVAGAIIVLLLYLKRLKIIIFPPIPDPGKIFKEMFGDQNDDTLHWKKYDIYEKQTKEETDSVVLIENLKKASQ
# B3: interleukin‐13 receptor subunit alpha‐2 (IL‐13Rα2) (receptor, UniProt Q14627 27-380)
# chain: B1 chain
# Assays:
# Experiment in all cases: co-IP; reversed: A549 cells transfected with FL or Δ278‐294 CHI3L1‐6×Myc, with or without 5 μM K284 for 24 h; immunoprecipitation with anti‐CHI3L1 IgG, blot with anti‐IL‐13Rα1 IgG or anti‐IL‐13Rα2 IgG
# [1] = biological target: 6×Myc‐tagged human CHI3L1 (chitinase 3 like1), full length (human), P36222; settings: remark: other sources report otherwise
# [2] = biological target: 6×Myc‐tagged human CHI3L1 (chitinase 3 like1), full length (human) (UniProt P36222)
# [3] = biological target: 6×Myc‐tagged human CHI3L1 Δ278‐294 (human) (UniProt P36222)
binder,measurement,setting,value
B1,binding,[1],binds
B2,binding,[2],binds
B3,binding,[3],binds
